Laboratory results as given in the supplement of paper PMC6078165.
± gives the standard deviation of the averaged measurements. Values are relative to the signal before dosing, not to a vehicle control; the signal also falls without drug.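 The tumor cells are basal-like or mesenchymal-like triple-negative breast cancer lines cultured without fibroblasts. Reduced red signal indicates lost mitochondrial integrity, serving as a proxy for apoptotic death.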

How the values were obtained:
Test in all cases: relative JC-1 red fluorescence (viability) vs pre-drug, monoculture (fraction); higher = more viable cancer cells
Conditions in all cases: coculture fibroblast: none (monoculture)
[1] = tested on: MDAMB436
Experimental: (§1)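 JC-1 labelled TNBC cells grown in monoculture (density kept equal with unlabelled cancer cells) in 384-well plates in FluoroBrite medium, treated with one of 42 anticancer drugs at 0.1, 1, 10 or 100 uM. JC-1 red fluorescence (mitochondrial integrity, surrogate of apoptotic death) was read by plate reader every 8 h for 72 h. Values are normalised to each well's pre-drug value, with background from alamethicin. The stock of one drug was tenfold lower, so its dose labels may be too high. Monoculture values are repeated alongside each fibroblast plate and are averaged here.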

[2] = tested on: MDAMB468
Experimental: as §1

[3] = tested on: MDAMB231
Experimental: as §1

[4] = tested on: BT20
Experimental: as §1

O=NN(CCCl)C(=O)NC1CCCCC1 [Lomustine]
relative JC-1 red fluorescence
Conditions | 8 h | 16 h | 24 h | 32 h | 40 h | 48 h | 56 h | 64 h | 72 h
[1], 0.1 µM | 0.852 ± 0.023 | 0.774 ± 0.0077 | 0.801 ± 0.013 | 0.772 ± 0.016 | 0.779 ± 0.021 | 0.781 ± 0.018 | 0.793 ± 0.018 | 0.801 ± 0.028 | 0.828 ± 0.03
[1], 1 µM | 0.8544 ± 0.0059 | 0.753 ± 0.007 | 0.7506 ± 0.0063 | 0.6994 ± 0.0058 | 0.681 ± 0.0085 | 0.663 ± 0.014 | 0.65 ± 0.016 | 0.642 ± 0.015 | 0.637 ± 0.013
[1], 10 µM | 0.822 ± 0.014 | 0.79 ± 0.011 | 0.8036 ± 0.0076 | 0.765 ± 0.012 | 0.76 ± 0.022 | 0.765 ± 0.032 | 0.762 ± 0.038 | 0.771 ± 0.052 | 0.776 ± 0.05
[1], 100 µM | 0.8287 ± 0.0066 | 0.779 ± 0.025 | 0.817 ± 0.053 | 0.784 ± 0.064 | 0.796 ± 0.083 | 0.816 ± 0.089 | 0.819 ± 0.092 | 0.83 ± 0.1 | 0.853 ± 0.11
[2], 0.1 µM | 0.8522 ± 0.0078 | 0.7409 ± 0.0073 | 0.71 ± 0.0034 | 0.634 ± 0.014 | 0.596 ± 0.012 | 0.567 ± 0.0037 | 0.53267 ± 0.00011 | 0.5078 ± 0.0037 | 0.4939 ± 0.0038
[2], 1 µM | 0.895 ± 0.012 | 0.847 ± 0.016 | 0.787 ± 0.023 | 0.717 ± 0.023 | 0.692 ± 0.032 | 0.672 ± 0.041 | 0.647 ± 0.05 | 0.622 ± 0.048 | 0.62 ± 0.061
[2], 10 µM | 0.775 ± 0.011 | 0.69 ± 0.025 | 0.655 ± 0.028 | 0.581 ± 0.027 | 0.544 ± 0.018 | 0.541 ± 0.014 | 0.514 ± 0.0097 | 0.495 ± 0.012 | 0.486 ± 0.013
[2], 100 µM | 0.837 ± 0.061 | 0.599 ± 0.011 | 0.555 ± 0.012 | 0.502 ± 0.0053 | 0.4695 ± 0.0035 | 0.472 ± 0.0089 | 0.444 ± 0.013 | 0.434 ± 0.016 | 0.435 ± 0.024
[3], 0.1 µM | 0.715 ± 0.022 | 0.64774 ± 0.00063 | 0.846 ± 0.06 | 0.68 ± 0.037 | 0.663 ± 0.052 | 0.704 ± 0.081 | 0.706 ± 0.083 | 0.759 ± 0.093 | 0.773 ± 0.1
[3], 1 µM | 0.7243 ± 0.0017 | 0.682 ± 0.016 | 0.6576 ± 0.0006 | 0.594 ± 0.0081 | 0.5602 ± 0.00095 | 0.5538 ± 0.0027 | 0.5373 ± 0.0014 | 0.5617 ± 0.0023 | 0.5679 ± 0.0052
[3], 10 µM | 0.683 ± 0.018 | 0.654 ± 0.029 | 0.686 ± 0.046 | 0.603 ± 0.043 | 0.572 ± 0.048 | 0.579 ± 0.051 | 0.564 ± 0.049 | 0.601 ± 0.049 | 0.605 ± 0.043
[3], 100 µM | 0.602 ± 0.079 | 0.539 ± 0.053 | 0.591 ± 0.056 | 0.524 ± 0.064 | 0.513 ± 0.07 | 0.51 ± 0.065 | 0.503 ± 0.055 | 0.544 ± 0.048 | 0.548 ± 0.043
[4], 0.1 µM | 0.927 ± 0.025 | 0.841 ± 0.0063 | 0.826 ± 0.0062 | 0.757 ± 0.011 | 0.7237 ± 0.0048 | 0.714 ± 0.0097 | 0.692 ± 0.0081 | 0.7 ± 0.013 | 0.694 ± 0.021
[4], 1 µM | 0.9604 ± 0.004 | 0.8835 ± 0.0037 | 0.812 ± 0.029 | 0.729 ± 0.025 | 0.678 ± 0.031 | 0.653 ± 0.031 | 0.62 ± 0.036 | 0.602 ± 0.036 | 0.586 ± 0.039
[4], 10 µM | 0.895 ± 0.022 | 0.8324 ± 0.0028 | 0.8289 ± 0.0054 | 0.7649 ± 0.0059 | 0.7418 ± 0.0031 | 0.7244 ± 0.0016 | 0.7109 ± 0.00074 | 0.713 ± 0.0073 | 0.717 ± 0.0067
[4], 100 µM | 0.859 ± 0.042 | 0.806 ± 0.027 | 0.852 ± 0.045 | 0.814 ± 0.04 | 0.797 ± 0.043 | 0.806 ± 0.037 | 0.786 ± 0.03 | 0.791 ± 0.032 | 0.791 ± 0.027
